Laboratory results reported in patent publication US5395609A, “Synthetic peptides for use in tumor detection” (Antisoma Limited, priority 1989, dated 1995).
“And” between values parts separate entries of the source, which are not always exact repeats. Identical values can stand only once. Part of at least one peptide drawing is inferred or uncertain, most often the ends.

Test system: ADP-induced platelet aggregation
Assay: Inhibition of ADP-induced platelet aggregation
Format: cell-based
Details: ADP 1 × 10^-5 M

## N=C(N)NCCC[C@H](N)C(=O)NCC(=O)N[C@@H](CC(=O)O)C(=O)N[C@@H](CO)C(=O)O [RGDS, Arg-Gly-Asp-Ser]
Peptide 0.1 mM
  percentage inhibition: 40 and 37
Peptide 0.2 mM
  percentage inhibition: 70 and 65
Peptide 0.4 mM
  percentage inhibition: 86 and 80
